Data as given in PubChem BioAssay AID1259329 (Drosophila RNAi Screening Center, 2017).

Screen: 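Water reference run beside parallel screens of metal toxicity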
Cells: Drosophila S2R+ cells
Knock-down reagent: long dsRNA against Drosophila genes
Time to read-out: 5 days (4 days knock-down, then 1 day after water)
Conditions: water added as vehicle control, no metal, one day before read-out
Read-out: 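Luciferase-based total ATP per well, read one day after adding water without metal following 4 days knock-down, given as z-score averaged across duplicate plates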
Direction: mean ATP z-score: higher = more total ATP, likely more viable cells
Call rule: 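a reagent counts as active if its z-score is greater than 1.5 or less than -1.5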
This is one part, drawn at random, of 418 reagents tested. In the full data, 20 (4.8%) were called active. 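All active calls have high ATP; no reagent fell below -1.5.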 Entries without a mark were called inactive. Reagent sequences are not shown. The record does not give: the amount of reagent, the dose of the treatment.

Vps33B (Vacuolar protein sorting 33B) [DRSC15722] — mean ATP z-score: 0.0499
Vps33B (Vacuolar protein sorting 33B) [DRSC35357] — mean ATP z-score: 0.209
CG15533 [DRSC15069] — mean ATP z-score: -0.605
CG15533 [DRSC30031] — mean ATP z-score: 1.14
Vps16B (Vacuolar protein sorting 16B) [DRSC15304] — mean ATP z-score: -0.19
Vps16B (Vacuolar protein sorting 16B) [DRSC34692] — mean ATP z-score: -0.497
Vps16B (Vacuolar protein sorting 16B) [DRSC34693] — mean ATP z-score: -1.01
CG5731 [DRSC02883] — mean ATP z-score: 0.185
CG5731 [DRSC25969] — mean ATP z-score: -0.0728
CG5731 [DRSC37705] — mean ATP z-score: 0.132
CG6638 [DRSC10680] — mean ATP z-score: -0.264
CG6638 [DRSC24246] — mean ATP z-score: -1.05
Vha100-2 (Vacuolar H[+] ATPase 100kD subunit 2) [DRSC14152] — mean ATP z-score: 0.772
Vha100-2 (Vacuolar H[+] ATPase 100kD subunit 2) [DRSC29227] — mean ATP z-score: -0.146
fdl (fused lobes) [DRSC07279] — mean ATP z-score: 0.181
fdl (fused lobes) [DRSC26852] — mean ATP z-score: 2.05 (active)
Acox3 (Acyl-CoA oxidase 3) [DRSC03251] — mean ATP z-score: 1.31
Acox3 (Acyl-CoA oxidase 3) [DRSC23799] — mean ATP z-score: 1.11
CG10194 [DRSC02025] — mean ATP z-score: -0.254
Vps13 (Vacuolar protein sorting 13) [DRSC06817] — mean ATP z-score: -0.253
Vps13 (Vacuolar protein sorting 13) [DRSC29275] — mean ATP z-score: 1.72 (active)
Vps13 (Vacuolar protein sorting 13) [DRSC35042] — mean ATP z-score: -0.538
Vps35 (Vacuolar protein sorting 35) [DRSC04519] — mean ATP z-score: -0.393
Vps35 (Vacuolar protein sorting 35) [DRSC28790] — mean ATP z-score: 0.725
Vps35 (Vacuolar protein sorting 35) [DRSC36445] — mean ATP z-score: 0.761
VhaPPA1-1 (Vacuolar H[+] ATPase PPA1 subunit 1) [DRSC24144] — mean ATP z-score: 0.587
VhaPPA1-1 (Vacuolar H[+] ATPase PPA1 subunit 1) [DRSC32232] — mean ATP z-score: -1.08
VhaPPA1-1 (Vacuolar H[+] ATPase PPA1 subunit 1) [DRSC32233] — mean ATP z-score: -0.976
CG6508 [DRSC02963] — mean ATP z-score: 1.33
CG17134 [DRSC02583] — mean ATP z-score: 0.0581
Vps20 (Vacuolar protein sorting 20) [DRSC04448] — mean ATP z-score: -0.233
Vps20 (Vacuolar protein sorting 20) [DRSC36248] — mean ATP z-score: -0.712
Vps20 (Vacuolar protein sorting 20) [DRSC36249] — mean ATP z-score: -1.25
LManI (Lysosomal alpha-mannosidase I) [DRSC24754] — mean ATP z-score: -0.469
LManI (Lysosomal alpha-mannosidase I) [DRSC39016] — mean ATP z-score: 0.24
LManI (Lysosomal alpha-mannosidase I) [DRSC41065] — mean ATP z-score: -0.407
ACOX1 (acyl-CoA oxidase 1) [DRSC05941] — mean ATP z-score: 1.02
ACOX1 (acyl-CoA oxidase 1) [DRSC24604] — mean ATP z-score: -1.16
Gba1a (Glucocerebrosidase 1a) [DRSC21494] — mean ATP z-score: 0.594
mnd (minidiscs) [DRSC11370] — mean ATP z-score: -0.611
mnd (minidiscs) [DRSC39608] — mean ATP z-score: -0.0377
CG15534 [DRSC15070] — mean ATP z-score: 0.249
CG15534 [DRSC26433] — mean ATP z-score: -0.194
Vha55 (Vacuolar H[+]-ATPase 55kD subunit) [DRSC26184] — mean ATP z-score: 0.635
Vha55 (Vacuolar H[+]-ATPase 55kD subunit) [DRSC31689] — mean ATP z-score: 0.284
Vha55 (Vacuolar H[+]-ATPase 55kD subunit) [DRSC31690] — mean ATP z-score: 0.672
mei-9 (meiotic 9) [DRSC18792] — mean ATP z-score: 0.224
CG7997 [DRSC07052] — mean ATP z-score: -0.283
CG7997 [DRSC25706] — mean ATP z-score: -1.19
ClC-b (Chloride channel-b) [DRSC07220] — mean ATP z-score: -0.057
ClC-b (Chloride channel-b) [DRSC37711] — mean ATP z-score: -0.407
ClC-b (Chloride channel-b) [DRSC39990] — mean ATP z-score: 0.345
Pex5 (Peroxin 5) [DRSC18552] — mean ATP z-score: -0.013
Pex5 (Peroxin 5) [DRSC26136] — mean ATP z-score: -1.32
Pex5 (Peroxin 5) [DRSC34058] — mean ATP z-score: -1.26
cathD (cathepsin D) [DRSC07588] — mean ATP z-score: 1.33
Rpt6R (Regulatory particle triple-A ATPase 6-related) [DRSC15431] — mean ATP z-score: -0.272
Rpt6R (Regulatory particle triple-A ATPase 6-related) [DRSC41241] — mean ATP z-score: -0.38
LManIII (Lysosomal alpha-mannosidase III) [DRSC03221] — mean ATP z-score: 2.09 (active)
LManIII (Lysosomal alpha-mannosidase III) [DRSC29001] — mean ATP z-score: -1.14
LManIII (Lysosomal alpha-mannosidase III) [DRSC35602] — mean ATP z-score: -0.443

Quoted from above for reference:
CG10194 [DRSC02025] — mean ATP z-score: -0.254
Vps13 (Vacuolar protein sorting 13) [DRSC06817] — mean ATP z-score: -0.253
Vps13 (Vacuolar protein sorting 13) [DRSC29275] — mean ATP z-score: 1.72 (active)
